Measured values from PubChem BioAssay AID662 (National Center for Advancing Translational Sciences (NCATS), 2007).
This is one part of the list. Further columns of the screen follow, without active or inactive calls. The list favours compounds with an active or inconclusive main result. Potencies come from curve fits of mixed quality, noted in brackets.

Assay: Cell signaling CRE-BLA (Fsk stim)
Details: CHO CRE-bla reporter (cAMP response element driving beta-lactamase), forskolin EC10, beta-lactamase ratio; measured here: 460 nm blue channel
Summary of the method: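 Cells were plated overnight at 37 °C, exposed to compound titrations plus EC10 NKH 477 for 3 h, then given CCF4 dye for 2 h at room temperature. Blue/green (460/530 nm) ratio was converted to %Activity and AC50 values calculated.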

SMILES	AC50
C=CCn1c(SCc2ccccc2C#N)nnc1-c1cc(Br)ccc1O	20 µM [falling, single point]
Cc1ccc(C)c(N2CCN(Cc3nnnn3C3CCCCC3)CC2)c1	12.6 µM [rising, single point]
CN(C)c1ccc(-n2cc3c(=O)n(C)c(=O)n(C)c3c2)cc1	10 µM [rising, partial curve]
CCC(O)CNc1nc(-n2nc(C)cc2C)nc2sc3c(c12)CCCC3 (stereo not given)	0.631 µM [rising, full curve]
COc1ccccc1-c1cc(=O)c2cc(O)ccc2o1	2.51 µM [rising, partial curve, poor fit]
Cn1c(=O)c(CCc2ccccc2)nc2cnc(N3CCOCC3)nc21	12.6 µM [rising, partial curve]
CCOC(=O)c1sc(NC(C)=O)cc1C	10 µM [rising, partial curve]
CCn1c(=O)cc(OCC(=O)NCc2cccnc2)c2ccccc21	10 µM [rising, single point]
CCNc1ncc2nc(-c3ccc(F)cc3)c(=O)n(Cc3ccc(F)cc3)c2n1	15.8 µM [rising, partial curve]
Cn1c(C(C#N)C2=C(Cl)C(=O)N(c3ccccc3)C2=O)nc2ccccc21 (stereo not given)	12.6 µM [falling, partial curve]
CCS(=O)(=O)N1CCC(C(=O)Nc2cc(Cl)ccc2O)CC1	0.00398 µM [falling, full curve, poor fit]
CC(C)c1nc(SCc2ccccn2)c2c(=O)n(C)c(=O)n(C)c2n1	5.01 µM [rising, partial curve]
Cc1cc(Oc2ccc(Cl)cc2)nc(-c2ccccc2O)n1	7.94 µM [rising, partial curve]
CCOC(=O)C(C)Oc1ccc(C2NC(=O)NC(C)=C2C(C)=O)cc1Br (stereo not given)	12.6 µM [falling, partial curve]
COC(=O)C1=CNC=C(C(=O)OC)C1c1ccc(C(=O)OC)cc1	12.6 µM [rising, partial curve]
O=C(c1cc(-c2ccc(O)cc2)on1)N1CCc2ccccc2C1	10 µM [falling, partial curve]
COC(=O)c1ccc(CSc2nc(C(F)(F)F)c3c(c2C#N)CCC3)o1	10 µM [rising, partial curve]
COc1cccc(-c2nc(NCc3cnc(C)cn3)c3ccccc3n2)c1	10 µM [rising, partial curve]
CC(C(=O)N1CCc2ccccc21)N1CCc2ccccc2C1 (stereo not given)	10 µM [falling, partial curve]
CC(=O)C1=C(C)NC(SCC(=O)c2ccc(Cl)cc2Cl)=C(C#N)C1c1ccco1 (stereo not given)	3.98 µM [rising, single point]
CCn1c(SCc2nc3ccccc3s2)nnc1-c1cccs1	5.01 µM [falling, single point]
CCOC(=O)N1CCC(NC(=O)c2cc3c(=O)n(C)c4ccccc4c3n2C)CC1	5.01 µM [rising, partial curve]
Cc1cc(C)n(-c2c(F)c(F)c(CN3CCOCC3)c(F)c2F)n1	2.51 µM [falling, full curve, poor fit]
CCCCNC(=O)c1cc2c(=O)n3cccc(C)c3nc2n(Cc2ccncc2)c1=N	5.01 µM [rising, partial curve]

SMILES	AC50
O=c1c(/C=N/O)c(Nc2ccccc2)nc2ccccn12	6.31 µM [rising, partial curve]
Nc1nc2sc3c(c2cc1C(=O)N1CCOCC1)CCCC3	0.00316 µM [falling, full curve, poor fit]
CC1CCCCN1CCNC(=O)c1cc2c(=O)n(C)c3ccccc3c2n1C (stereo not given)	7.94 µM [rising, partial curve]
COC(=O)c1c(-c2cc(OC)c(OC)c(OC)c2)c2ccnc(OCc3ncccn3)c2c(=O)n1Cc1ccnc(C)c1	0.0316 µM [rising, full curve, poor fit]
CCSc1nnc(NC(=O)c2ccccn2)s1	12.6 µM [falling, single point]
O=C1Nc2cc3c(cc2Sc2ccccc21)OCCO3	3.98 µM [falling, single point]
O=C(c1c(F)cccc1F)N1CCN(c2ccccc2F)CC1	0.01 µM [falling, full curve, poor fit]
O=C1c2ccccc2C(=O)N1CCCSc1ccccc1	3.98 µM [rising, single point]
Cc1cc(C)n(-c2nc(NCCCO)c3c4c(sc3n2)CCCC4)n1	1.26 µM [rising, full curve]
CCC1CCCCN1CCCNC(=O)CNC(=O)Cn1ccc2ccccc2c1=O (stereo not given)	12.6 µM [rising, single point]
COc1cc(C)c(CNc2ccc(OC)c(OC)c2)cc1C	1 µM [falling, partial curve, poor fit]
CCNC(=O)NC(=O)C(C)OC(=O)c1cccnc1SC (stereo not given)	2.51 µM [falling, partial curve]
COc1ccc(-c2nc3cnc(OC)nc3n(C3CC3)c2=O)cc1	3.16 µM [rising, partial curve, poor fit]
O=S(=O)(Nc1cccnc1)c1ccc2c(c1)OCCO2	3.98 µM [falling, single point]
C/C(=N\O)c1ccc(N2C(=O)C3CC=C(Cl)CC3C2=O)cc1 (stereo not given)	0.158 µM [rising, full curve, poor fit]
COc1cc2c(cc1O)C(SC)=NC(C)(C)C2	12.6 µM [falling, single point]
COC(=O)c1sccc1NC(=O)c1ccc(OC)cc1	25.1 µM [rising, single point]
CCc1nn(-c2cc(Cl)ccc2OC)c2c1C(=O)CCC2	12.6 µM [rising, partial curve]
Cn1nc(C(=O)Nc2sccc2C(N)=O)ccc1=O	0.316 µM [falling, full curve]
CCn1c(CSc2nc(C)cc(C)n2)nnc1SCC(=O)N1CCCc2ccccc21	12.6 µM [rising, single point]
COC(=O)c1cc(OC)c(OC)cc1NC(=O)c1ccc(Br)o1	6.31 µM [rising, partial curve]
N#Cc1cc2cc3c(cc2nc1N1CCCCC1)OCCO3	12.6 µM [rising, partial curve]
O=C(c1cc2n(n1)C(C(F)(F)F)CC(c1ccco1)N2)N1CCc2ccccc2C1 (stereo not given)	10 µM [falling, single point]
CCOc1ccc(Nc2oc(Cc3ccccc3)nc2C#N)cc1	10 µM [rising, partial curve]

SMILES	AC50
CCNc1nc(N)c(C(=O)c2ccc(Cl)s2)s1	6.31 µM [falling, full curve]
CCCCc1ccc(NC(=O)c2c(C)noc2C)cc1	10 µM [falling, partial curve]
CCOc1ccc2nc(SCC(=O)NCc3ccco3)sc2c1	20 µM [rising, single point]
O=C(CSc1ccc2nnc(-c3ccccn3)n2n1)NCc1ccco1	25.1 µM [falling, single point]
O=S1(=O)N=CN(Cc2cccc(F)c2)c2ccccc21	0.398 µM [rising, full curve]
CCOCCCNC(=O)c1cc2c(=O)n3cccc(C)c3nc2n1C	0.251 µM [rising, full curve]
CCOCCCNC(=O)c1c(C)[nH]c(C(=O)OCC)c1C	20 µM [falling, partial curve, poor fit]
COc1ccc(-c2nc3cnc(N(C)C)nc3n(Cc3cccs3)c2=O)cc1	12.6 µM [rising, partial curve]
N#CC1=C(N)Oc2cc(N)ccc2C1C1CCCCC1 (stereo not given)	3.98 µM [falling, full curve, poor fit]
COc1ccc(C(=O)CSc2nnc(-c3cc4ccccc4cc3O)n2Cc2ccco2)cc1	12.6 µM [falling, single point]
O=C(O)c1[nH]c2c([N+](=O)[O-])cc([N+](=O)[O-])cc2c1C(=O)O	0.0251 µM [rising, full curve, poor fit]
NC(=O)COc1c(-c2ccccc2)oc2ccccc2c1=O	5.01 µM [rising, partial curve]
COc1ccc(NC(=O)CSc2nnc(-c3ccccn3)n2N)cc1Cl	10 µM [rising, single point]
Cc1noc(C)c1-c1nccc(NCc2cccs2)n1	6.31 µM [rising, partial curve]
CCC1Sc2ccccc2N(CC(=O)NCc2ccc3c(c2)OCO3)C1=O (stereo not given)	0.00631 µM [falling, full curve, poor fit]
O=C1CC(N2CCN(c3ccccc3F)CC2)C(=O)N1c1ccc2c(c1)OCCO2 (stereo not given)	0.126 µM [falling, full curve, poor fit]
c1ccc2c(c1)nc(NCC1CCCO1)c1nnnn12 (stereo not given)	10 µM [rising, single point]
CNc1ccnc(-c2c(C)noc2C)n1	3.98 µM [rising, single point]
O=C(CSc1nc2ccccc2c(=O)[nH]1)N1CCCCC1	12.6 µM [rising, single point]
O=C(Nc1cccc(Cl)c1)N1CCN(c2ncccn2)CC1	12.6 µM [rising, partial curve]
NC(=O)/N=N/C(N)=O	2.51 µM [rising, full curve]
CSc1nnc2c3c4c(sc3nc(-n3nc(C)cc3C)n12)COC(C)(C)C4	12.6 µM [rising, single point]

Random excerpt: two entries already listed, in no set order.
SMILES	AC50
COc1ccc(NC(=O)CSc2nnc(-c3ccccn3)n2N)cc1Cl	10 µM [rising, single point]
CCOCCCNC(=O)c1c(C)[nH]c(C(=O)OCC)c1C	20 µM [falling, partial curve, poor fit]
